Some entries share one result that the patent states for a list of compounds. Peptide text beside a SMILES is read from it. * marks the point of attachment. Cbz = O=C(OCc1ccccc1)*
Assay: Solubility in a buffer solution at 50 mM Tris/HCl pH 7.4 (visual inspection)
Format: physicochemical
Conditions: comparison of <2 mg/mL with >20 mg/mL
Procedure: The solubility of the substituted citrates (A1, A2, A3 and A4) was measured in a buffer solution.
In a buffer solution at 50 mM of Tris/HCl, pH 7.4 (1 mL), the substituted citrate in powder form (20 mg) is introduced. The tubes are stirred (rolling shaker) for 30 minutes at ambient temperature, then inspected visually. The pH is adjusted to 7.4±0.4.
The solubility of the compounds of the prior art (CE1 and CE2) was measured.
4 mL of a buffer solution at 50 mM of Tris/HCl at pH 7.4 were introduced into a glass tube, at ambient temperature. The compounds in powder form were added successively in the amount of 8 mg per addition. After each addition of compound, the tubes were stirred (rolling shaker) for 30 minutes at ambient temperature, then inspected visually. The pH is adjusted to 7.4±0.4.
The concentrations at which insoluble matter was observed are defined as being greater than the limit of solubility of the compound.

SMILES	limit of solubility lower than that of the substituted citrates of the invention
O=C(N[C@@H](Cc1ccccc1)C(=O)N[C@@H](Cc1ccccc1)C(=O)O)OCc1ccccc1 [CE1, N-Carbobenzoxy-L- phenylalanyl-L- phenylalanine] (Cbz-Phe-Phe-OH)	at least 10 times
O=C(N[C@@H](Cc1ccccc1)C(=O)O)c1ccccc1 [CE2, Benzoyl-L- phenylalanine]	at least 10 times
